From publication doi:10.1101/2020.07.06.189340
No constants are given. Whether binding was seen depends on the method and setting. Binding seen in cells or lysates may run through a third protein. Some binding calls cover weakened binding; strength is not graded here. For some of these results: Where a sequence is shown, tags or fusion partners need not be part of it.

Amino acid sequences for entries named in this document (tags omitted). A change or cut given only in a name is not applied to a line headed by its entry.
UniProt Q14203: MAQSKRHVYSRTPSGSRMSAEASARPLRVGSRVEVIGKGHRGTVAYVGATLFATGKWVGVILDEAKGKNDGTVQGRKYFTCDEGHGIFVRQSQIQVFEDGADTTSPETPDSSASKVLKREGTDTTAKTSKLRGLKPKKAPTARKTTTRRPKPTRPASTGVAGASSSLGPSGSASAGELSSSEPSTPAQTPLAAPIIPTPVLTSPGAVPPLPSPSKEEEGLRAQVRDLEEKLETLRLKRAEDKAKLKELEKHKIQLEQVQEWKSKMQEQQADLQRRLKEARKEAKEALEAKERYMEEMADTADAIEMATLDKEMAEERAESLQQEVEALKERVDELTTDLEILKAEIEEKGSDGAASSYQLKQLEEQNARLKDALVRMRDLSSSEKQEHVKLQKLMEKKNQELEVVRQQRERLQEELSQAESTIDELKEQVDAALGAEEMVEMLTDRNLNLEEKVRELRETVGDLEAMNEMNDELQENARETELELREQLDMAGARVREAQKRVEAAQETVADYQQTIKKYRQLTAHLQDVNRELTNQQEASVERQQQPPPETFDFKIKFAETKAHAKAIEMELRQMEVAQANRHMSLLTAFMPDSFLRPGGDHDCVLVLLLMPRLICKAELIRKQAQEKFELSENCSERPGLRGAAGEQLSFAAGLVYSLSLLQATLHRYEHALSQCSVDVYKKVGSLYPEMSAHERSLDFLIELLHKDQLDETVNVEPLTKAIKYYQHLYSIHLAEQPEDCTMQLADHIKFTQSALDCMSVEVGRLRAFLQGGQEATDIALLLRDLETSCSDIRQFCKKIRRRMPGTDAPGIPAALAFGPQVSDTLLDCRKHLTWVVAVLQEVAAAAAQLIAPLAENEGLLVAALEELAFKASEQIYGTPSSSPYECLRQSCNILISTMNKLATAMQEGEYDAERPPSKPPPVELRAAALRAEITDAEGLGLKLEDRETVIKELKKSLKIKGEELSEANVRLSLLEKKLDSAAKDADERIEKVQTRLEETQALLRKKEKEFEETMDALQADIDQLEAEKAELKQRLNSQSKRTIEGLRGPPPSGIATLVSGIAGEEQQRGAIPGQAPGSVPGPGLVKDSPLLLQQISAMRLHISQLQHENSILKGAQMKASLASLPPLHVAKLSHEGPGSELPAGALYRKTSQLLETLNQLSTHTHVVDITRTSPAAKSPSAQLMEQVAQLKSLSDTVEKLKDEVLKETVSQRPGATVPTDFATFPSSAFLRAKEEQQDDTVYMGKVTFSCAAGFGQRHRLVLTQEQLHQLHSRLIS
UniProt Q14204: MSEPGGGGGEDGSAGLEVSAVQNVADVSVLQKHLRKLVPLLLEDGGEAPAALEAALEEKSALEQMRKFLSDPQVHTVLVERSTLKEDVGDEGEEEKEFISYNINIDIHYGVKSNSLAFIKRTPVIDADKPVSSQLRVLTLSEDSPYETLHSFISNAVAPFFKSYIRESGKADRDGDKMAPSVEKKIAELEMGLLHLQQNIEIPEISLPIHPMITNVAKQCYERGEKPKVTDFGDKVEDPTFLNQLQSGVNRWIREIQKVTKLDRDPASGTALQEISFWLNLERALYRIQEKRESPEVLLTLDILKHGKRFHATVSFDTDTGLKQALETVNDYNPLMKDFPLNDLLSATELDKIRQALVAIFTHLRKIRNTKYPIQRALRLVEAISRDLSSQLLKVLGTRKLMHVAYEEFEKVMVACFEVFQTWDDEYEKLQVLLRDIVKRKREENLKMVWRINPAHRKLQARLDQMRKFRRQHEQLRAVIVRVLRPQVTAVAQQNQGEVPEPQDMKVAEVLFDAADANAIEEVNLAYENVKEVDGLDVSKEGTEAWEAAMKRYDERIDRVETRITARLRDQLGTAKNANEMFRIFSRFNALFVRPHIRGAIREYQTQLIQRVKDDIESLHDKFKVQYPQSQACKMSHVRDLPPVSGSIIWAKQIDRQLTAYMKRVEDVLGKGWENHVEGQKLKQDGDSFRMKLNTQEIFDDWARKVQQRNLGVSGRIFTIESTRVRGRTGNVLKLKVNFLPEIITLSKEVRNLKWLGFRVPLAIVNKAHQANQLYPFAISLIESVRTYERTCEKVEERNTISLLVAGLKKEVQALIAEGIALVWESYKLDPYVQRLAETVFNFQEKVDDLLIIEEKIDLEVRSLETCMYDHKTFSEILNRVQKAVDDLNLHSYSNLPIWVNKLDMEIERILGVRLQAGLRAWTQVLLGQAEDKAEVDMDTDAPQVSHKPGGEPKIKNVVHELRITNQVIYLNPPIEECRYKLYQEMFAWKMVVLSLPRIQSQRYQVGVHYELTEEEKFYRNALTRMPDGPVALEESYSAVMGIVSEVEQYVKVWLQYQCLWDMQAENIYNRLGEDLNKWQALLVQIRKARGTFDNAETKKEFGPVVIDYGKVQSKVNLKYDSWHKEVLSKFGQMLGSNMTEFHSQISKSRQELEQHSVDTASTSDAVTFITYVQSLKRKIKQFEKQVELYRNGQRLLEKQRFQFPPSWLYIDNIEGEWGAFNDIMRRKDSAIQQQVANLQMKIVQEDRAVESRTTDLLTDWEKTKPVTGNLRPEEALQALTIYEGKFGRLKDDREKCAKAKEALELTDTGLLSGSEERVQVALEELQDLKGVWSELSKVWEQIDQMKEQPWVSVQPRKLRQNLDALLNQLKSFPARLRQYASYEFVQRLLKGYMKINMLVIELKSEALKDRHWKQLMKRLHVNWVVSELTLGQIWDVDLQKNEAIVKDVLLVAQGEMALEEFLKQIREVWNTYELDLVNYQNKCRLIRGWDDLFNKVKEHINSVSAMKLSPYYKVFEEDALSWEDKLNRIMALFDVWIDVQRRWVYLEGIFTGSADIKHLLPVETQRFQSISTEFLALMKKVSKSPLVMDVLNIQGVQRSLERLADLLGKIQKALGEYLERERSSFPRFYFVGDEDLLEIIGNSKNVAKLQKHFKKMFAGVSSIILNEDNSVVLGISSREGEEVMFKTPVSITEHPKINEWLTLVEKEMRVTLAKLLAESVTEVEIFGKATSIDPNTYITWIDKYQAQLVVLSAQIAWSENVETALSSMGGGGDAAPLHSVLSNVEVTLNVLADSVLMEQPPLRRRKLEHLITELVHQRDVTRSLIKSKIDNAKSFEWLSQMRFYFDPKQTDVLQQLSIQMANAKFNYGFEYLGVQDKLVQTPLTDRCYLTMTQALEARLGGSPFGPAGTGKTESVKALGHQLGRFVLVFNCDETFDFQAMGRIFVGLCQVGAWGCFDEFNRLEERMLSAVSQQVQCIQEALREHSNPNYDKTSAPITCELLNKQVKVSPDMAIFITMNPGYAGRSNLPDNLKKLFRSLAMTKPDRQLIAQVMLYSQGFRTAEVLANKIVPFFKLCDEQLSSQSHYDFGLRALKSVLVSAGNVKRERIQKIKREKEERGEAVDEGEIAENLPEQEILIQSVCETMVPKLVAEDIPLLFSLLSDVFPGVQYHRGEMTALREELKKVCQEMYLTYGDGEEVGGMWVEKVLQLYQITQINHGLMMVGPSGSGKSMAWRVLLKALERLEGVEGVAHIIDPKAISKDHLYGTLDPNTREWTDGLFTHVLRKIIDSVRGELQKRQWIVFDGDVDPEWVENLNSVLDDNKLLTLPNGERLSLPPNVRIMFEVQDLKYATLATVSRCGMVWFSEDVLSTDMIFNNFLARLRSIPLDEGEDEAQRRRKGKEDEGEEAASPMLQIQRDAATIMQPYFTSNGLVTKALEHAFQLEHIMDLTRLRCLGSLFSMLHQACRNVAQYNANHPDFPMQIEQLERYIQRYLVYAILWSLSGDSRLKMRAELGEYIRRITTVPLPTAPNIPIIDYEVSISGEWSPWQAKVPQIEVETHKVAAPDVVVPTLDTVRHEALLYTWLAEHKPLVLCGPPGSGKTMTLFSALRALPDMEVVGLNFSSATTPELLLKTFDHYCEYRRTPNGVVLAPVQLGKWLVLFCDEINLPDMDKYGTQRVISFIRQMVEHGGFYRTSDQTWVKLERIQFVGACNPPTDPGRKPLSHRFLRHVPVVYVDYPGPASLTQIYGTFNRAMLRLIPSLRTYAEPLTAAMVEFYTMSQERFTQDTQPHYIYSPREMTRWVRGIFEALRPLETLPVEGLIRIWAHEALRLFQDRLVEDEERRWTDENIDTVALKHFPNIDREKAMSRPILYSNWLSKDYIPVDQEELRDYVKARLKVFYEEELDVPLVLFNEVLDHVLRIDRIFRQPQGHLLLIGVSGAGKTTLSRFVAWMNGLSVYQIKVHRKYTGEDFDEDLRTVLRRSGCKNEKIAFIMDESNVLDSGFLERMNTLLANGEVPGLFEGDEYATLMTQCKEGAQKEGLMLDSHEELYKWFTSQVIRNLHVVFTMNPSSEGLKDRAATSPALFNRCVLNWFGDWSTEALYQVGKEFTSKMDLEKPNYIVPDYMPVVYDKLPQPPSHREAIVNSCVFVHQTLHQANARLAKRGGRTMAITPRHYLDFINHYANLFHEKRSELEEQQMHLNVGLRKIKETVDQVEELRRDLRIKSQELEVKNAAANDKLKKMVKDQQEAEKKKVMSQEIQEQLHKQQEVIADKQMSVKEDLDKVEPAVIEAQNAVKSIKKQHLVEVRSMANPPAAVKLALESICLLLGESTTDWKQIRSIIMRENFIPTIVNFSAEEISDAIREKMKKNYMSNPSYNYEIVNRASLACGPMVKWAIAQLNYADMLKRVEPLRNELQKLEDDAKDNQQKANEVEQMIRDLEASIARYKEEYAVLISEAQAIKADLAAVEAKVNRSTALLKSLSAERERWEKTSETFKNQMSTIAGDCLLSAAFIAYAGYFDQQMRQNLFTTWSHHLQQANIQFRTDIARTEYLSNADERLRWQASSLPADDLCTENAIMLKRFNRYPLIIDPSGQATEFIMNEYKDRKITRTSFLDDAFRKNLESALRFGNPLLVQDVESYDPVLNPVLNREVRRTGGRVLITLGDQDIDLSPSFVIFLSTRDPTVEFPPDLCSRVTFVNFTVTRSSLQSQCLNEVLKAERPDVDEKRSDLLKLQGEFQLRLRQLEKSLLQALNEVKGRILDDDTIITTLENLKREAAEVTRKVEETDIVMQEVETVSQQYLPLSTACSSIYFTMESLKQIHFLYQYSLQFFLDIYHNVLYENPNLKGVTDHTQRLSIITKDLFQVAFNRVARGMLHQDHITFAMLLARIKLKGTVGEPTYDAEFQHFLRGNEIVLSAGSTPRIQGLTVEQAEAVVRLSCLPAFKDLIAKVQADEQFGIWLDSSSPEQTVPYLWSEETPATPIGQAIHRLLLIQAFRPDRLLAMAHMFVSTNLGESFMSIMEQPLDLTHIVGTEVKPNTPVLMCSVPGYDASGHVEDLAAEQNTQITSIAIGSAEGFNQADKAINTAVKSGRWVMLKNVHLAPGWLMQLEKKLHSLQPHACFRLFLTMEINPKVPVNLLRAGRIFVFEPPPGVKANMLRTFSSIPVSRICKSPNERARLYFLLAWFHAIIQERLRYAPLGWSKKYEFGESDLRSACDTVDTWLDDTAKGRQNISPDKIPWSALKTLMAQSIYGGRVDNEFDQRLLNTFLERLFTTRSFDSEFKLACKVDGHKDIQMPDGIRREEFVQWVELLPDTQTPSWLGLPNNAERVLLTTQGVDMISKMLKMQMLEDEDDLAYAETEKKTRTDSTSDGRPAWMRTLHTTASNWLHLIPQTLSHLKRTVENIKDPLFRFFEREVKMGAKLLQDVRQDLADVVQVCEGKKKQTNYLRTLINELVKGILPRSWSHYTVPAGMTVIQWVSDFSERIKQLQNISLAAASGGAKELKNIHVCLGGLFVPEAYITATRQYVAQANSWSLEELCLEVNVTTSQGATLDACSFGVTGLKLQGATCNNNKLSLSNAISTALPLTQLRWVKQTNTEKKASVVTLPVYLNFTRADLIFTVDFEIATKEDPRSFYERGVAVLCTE

T1: GFP-Rab46 N658I (inactive, GDP-locked) (human) (UniProt Q9BSW2)
T1 sequence: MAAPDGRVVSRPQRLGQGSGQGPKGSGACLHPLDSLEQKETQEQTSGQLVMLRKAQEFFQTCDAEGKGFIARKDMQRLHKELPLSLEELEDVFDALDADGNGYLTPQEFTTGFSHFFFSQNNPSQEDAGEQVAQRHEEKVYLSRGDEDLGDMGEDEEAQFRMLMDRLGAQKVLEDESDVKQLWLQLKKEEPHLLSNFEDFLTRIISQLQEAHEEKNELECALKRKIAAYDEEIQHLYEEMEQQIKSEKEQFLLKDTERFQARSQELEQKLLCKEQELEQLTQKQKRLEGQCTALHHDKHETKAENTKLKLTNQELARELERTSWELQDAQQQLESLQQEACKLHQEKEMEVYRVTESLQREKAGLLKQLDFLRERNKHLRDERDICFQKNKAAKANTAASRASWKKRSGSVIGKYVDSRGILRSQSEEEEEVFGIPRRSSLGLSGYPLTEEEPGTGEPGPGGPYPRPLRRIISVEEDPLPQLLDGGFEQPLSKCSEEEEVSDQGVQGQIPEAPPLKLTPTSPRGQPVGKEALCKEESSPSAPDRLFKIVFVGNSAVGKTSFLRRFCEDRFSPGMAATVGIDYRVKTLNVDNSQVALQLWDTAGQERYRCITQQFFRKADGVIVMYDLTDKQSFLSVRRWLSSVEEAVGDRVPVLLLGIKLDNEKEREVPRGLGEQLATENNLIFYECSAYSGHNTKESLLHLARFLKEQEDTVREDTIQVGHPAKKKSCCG

T2: Rab46 (CRACR2A-L), endogenous (human (endogenous in HUVEC)) (UniProt Q9BSW2)
T2 sequence: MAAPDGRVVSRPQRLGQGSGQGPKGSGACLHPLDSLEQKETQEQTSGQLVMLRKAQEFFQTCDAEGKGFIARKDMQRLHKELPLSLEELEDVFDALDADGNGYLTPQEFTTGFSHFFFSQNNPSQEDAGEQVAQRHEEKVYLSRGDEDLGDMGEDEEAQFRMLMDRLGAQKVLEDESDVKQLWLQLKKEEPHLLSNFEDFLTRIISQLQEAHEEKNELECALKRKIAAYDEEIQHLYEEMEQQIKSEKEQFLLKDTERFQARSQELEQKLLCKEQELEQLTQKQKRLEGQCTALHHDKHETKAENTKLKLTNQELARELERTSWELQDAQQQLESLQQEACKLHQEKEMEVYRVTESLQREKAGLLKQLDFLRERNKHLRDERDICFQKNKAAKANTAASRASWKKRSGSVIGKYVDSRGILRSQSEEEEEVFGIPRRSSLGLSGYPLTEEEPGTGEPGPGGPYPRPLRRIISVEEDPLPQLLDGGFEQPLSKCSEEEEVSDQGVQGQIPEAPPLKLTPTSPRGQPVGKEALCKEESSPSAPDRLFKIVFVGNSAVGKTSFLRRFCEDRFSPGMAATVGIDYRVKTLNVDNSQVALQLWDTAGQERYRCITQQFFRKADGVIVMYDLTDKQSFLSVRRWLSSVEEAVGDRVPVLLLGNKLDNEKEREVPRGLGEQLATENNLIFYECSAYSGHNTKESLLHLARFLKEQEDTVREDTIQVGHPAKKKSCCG


Assays:
Test in all cases: co-IP
[1] = molecular target: T1, GFP-Rab46 N658I (inactive, GDP-locked) (human)
[2] = molecular target: T2, Rab46 (CRACR2A-L), endogenous (human (endogenous in HUVEC))
[3] = molecular target: p150^Glued, subunit of dynactin, endogenous (human (endogenous in HUVEC)) (UniProt Q14203)
[4] = molecular target: dynein heavy chain (DHC), endogenous (human (endogenous in HUVEC)) (UniProt Q14204)

Row | binding [1] | binding [2] | binding [3] | binding [4] | Molecule
1 | no binding | binds | binds |  | dynein heavy chain (DHC), endogenous (from UniProt Q14204 1-4646)
2 |  | binds |  | binds | p150^Glued, subunit of dynactin, endogenous (from UniProt Q14203-1 1-1278)
3 |  |  | binds | binds | Rab46 (CRACR2A-L), endogenous (protein, UniProt Q9BSW2-2 1-731) MAAPDGRVVSRPQRLGQGSGQGPKGSGACLHPLDSLEQKETQEQTSGQLVMLRKAQEFFQTCDAEGKGFIARKDMQRLHKELPLSLEELEDVFDALDADGNGYLTPQEFTTGFSHFFFSQNNPSQEDAGEQVAQRHEEKVYLSRGDEDLGDMGEDEEAQFRMLMDRLGAQKVLEDESDVKQLWLQLKKEEPHLLSNFEDFLTRIISQLQEAHEEKNELECALKRKIAAYDEEIQHLYEEMEQQIKSEKEQFLLKDTERFQARSQELEQKLLCKEQELEQLTQKQKRLEGQCTALHHDKHETKAENTKLKLTNQELARELERTSWELQDAQQQLESLQQEACKLHQEKEMEVYRVTESLQREKAGLLKQLDFLRERNKHLRDERDICFQKNKAAKANTAASRASWKKRSGSVIGKYVDSRGILRSQSEEEEEVFGIPRRSSLGLSGYPLTEEEPGTGEPGPGGPYPRPLRRIISVEEDPLPQLLDGGFEQPLSKCSEEEEVSDQGVQGQIPEAPPLKLTPTSPRGQPVGKEALCKEESSPSAPDRLFKIVFVGNSAVGKTSFLRRFCEDRFSPGMAATVGIDYRVKTLNVDNSQVALQLWDTAGQERYRCITQQFFRKADGVIVMYDLTDKQSFLSVRRWLSSVEEAVGDRVPVLLLGNKLDNEKEREVPRGLGEQLATENNLIFYECSAYSGHNTKESLLHLARFLKEQEDTVREDTIQVGHPAKKKSCCG
